The list does not hold the whole screen: it is rich in T/C values a quarter to a half above the control, in often repeated tests (any T/C) and in doses without a T/C. Further doses and runs are listed elsewhere. T/C is the treated group as % of the vehicle group. Some doses have a count of surviving animals in place of a T/C: the source files T/C as zero there, which appears to mark a toxic dose or a test without result, not a measured value. Some doses without a T/C left all or most animals alive at the check, yet need not have been tolerated: survival well below the control is almost never listed, so the zero probably covers shortened survival too. Counts of survivors are from the toxicity check (mostly the fifth day) where no day follows; animals may have died later. Schedules are NCI's codes, taken here to give the interval after Q, in days (D) or hours (H), and the number of doses after X. Some entries hold several experiments; the results are listed from low to high. Where survival is the endpoint, the PubChem record calls one and a half times the control and up active, and a quarter to a half above the control has no call in these data; cut-offs in other NCI protocols can differ. Some T/C values carry the count of animals alive at the toxicity check (mostly the fifth day); where none is given, no animal had died by that day.

The assay deals with CD2F1 mice, L1210 leukemia ip, survival T/C. Put plainly: NCI In Vivo Anticancer Drug Screen. Data for tumor model L1210 Leukemia (intraperitoneal) in CD2F1 (CDF1) mice. Conditions: higher T/C = longer survival. In outline: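 Ratio T/C, where T is the treated-group value and C the vehicle-dosed control value, from mice implanted with a transplantable tumor.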
The mark [1] stands for this setting: T/C endpoint: mean survival time, dose: 200.0 mg/kg/injection, schedule: Q01DX009 (ip), vehicle: saline with Tween-80.
Setting [2] is: T/C endpoint: mean survival time, dose: 400.0 mg/kg/injection, schedule: Q04DX003 (ip), vehicle: saline with Tween-80.
Setting [3] is: T/C endpoint: mean survival time, dose: 100.0 mg/kg/injection, schedule: Q04DX003 (ip), vehicle: saline.
The mark [4] stands for this setting: T/C endpoint: mean survival time, dose: 200.0 mg/kg/injection, schedule: Q04DX003 (ip), vehicle: saline.
Where [5] appears, read: T/C endpoint: mean survival time, dose: 400.0 mg/kg/injection, schedule: Q04DX003 (ip), vehicle: saline.

Regarding `NC1CCCCC1N.O=S(=O)([O-])CCCN1CCOCC1.O=S(=O)([O-])CCCN1CCOCC1.[Pt+4]`, the T/C (T/C endpoint: median survival time, dose: 3.12 mg/kg/injection, schedule: Q04DX003 (ip), vehicle: saline with Tween-80) was 137 % of control. Besides, the survivor count was 4 of 6 and 6 of 6 (T/C endpoint: median survival time, dose: 100.0 mg/kg/injection, schedule: Q04DX003 (ip), vehicle: saline with Tween-80); 0 of 6 (T/C endpoint: median survival time, dose: 200.0 mg/kg/injection, schedule: Q04DX003 (ip), vehicle: saline with Tween-80).
For `COc1nc(C(Cl)(Cl)Cl)c(Cl)c(OC)c1Cl`, the T/C runs as follows: (T/C endpoint: median survival time, dose: 90.0 mg/kg/injection, schedule: Q01DX005 (ip), vehicle: Klucel (hydroxypropylcellulose) (HPC)) 126 % of control; (T/C endpoint: median survival time, dose: 100.0 mg/kg/injection, schedule: Q01DX009 (ip), vehicle: Klucel (hydroxypropylcellulose) (HPC)) 130 and 146 % of control; (T/C endpoint: median survival time, dose: 120.0 mg/kg/injection, schedule: Q01DX005 (ip), vehicle: Klucel (hydroxypropylcellulose) (HPC)) 141 % of control. Moreover, the survivor count (T/C endpoint: median survival time, dose: 400.0 mg/kg/injection, schedule: Q01DX009 (ip), vehicle: Klucel (hydroxypropylcellulose) (HPC)) was 6 of 6.
Consider `[Cl][Pt+2][Cl].[NH-]C1CCC1[NH-]` (centres undefined), for which, where the note is “T/C endpoint: median survival time, dose: 5.0 mg/kg/injection, schedule: Q04DX003 (ip), vehicle: Klucel (hydroxypropylcellulose) (HPC)”, the T/C is 133 % of control. Besides, the survivor count runs as follows: (T/C endpoint: median survival time, dose: 20.0 mg/kg/injection, schedule: Q04DX003 (ip), vehicle: Klucel (hydroxypropylcellulose) (HPC)) 3 of 6; (T/C endpoint: median survival time, dose: 40.0 mg/kg/injection, schedule: Q04DX003 (ip), vehicle: Klucel (hydroxypropylcellulose) (HPC)) 0 of 6; (T/C endpoint: median survival time, dose: 80.0 mg/kg/injection, schedule: Q04DX003 (ip), vehicle: Klucel (hydroxypropylcellulose) (HPC)) 1 of 6.
With `CC(O)Cc1c(Cc2ccccc2)nc(-c2ccccc2)[nH]c1=O` (centres undefined), under setting [1], the survivor count is 6 of 6.
`CCc1ccc(O[Si](C)(C)C)cc1`: under setting [2], the survivor count was 5 of 6.
In the case of `CCCCCCCCCCCCCCCC[N+](C)(C)C`, the survivor count runs as follows: (T/C endpoint: mean survival time, dose: 10.0 mg/kg/injection, schedule: Q01DX009 (ip), vehicle: saline with Tween-80) 1 of 6; (T/C endpoint: mean survival time, dose: 20.0 mg/kg/injection, schedule: Q01DX009 (ip), vehicle: saline with Tween-80) 2 of 6; under setting [3], 0 of 6; under setting [4], 0 of 6; under setting [5], 0 of 6.
Take `N=c1ccn2c(n1)OC1C(OP(=O)(O)O)C(CO)OC12` (centres undefined): the T/C (T/C endpoint: mean survival time, dose: 8.7 mg/kg/injection, schedule: Q03HX024 (oral), vehicle: water) is 132 % of control; the T/C (T/C endpoint: mean survival time, dose: 11.6 mg/kg/injection, schedule: Q01DX009 (ip), vehicle: saline) is 139 % of control; the T/C (T/C endpoint: mean survival time, dose: 16.0 mg/kg/injection, schedule: Q01DX009 (ip), vehicle: saline) is 138 % of control; the T/C (T/C endpoint: mean survival time, dose: 16.0 mg/kg/injection, schedule: Q03HX008 (ip), vehicle: saline) was 127 % of control; the T/C (T/C endpoint: mean survival time, dose: 16.0 mg/kg/injection, schedule: Q03HX024 (oral), vehicle: saline) is 148 % of control; the T/C (T/C endpoint: mean survival time, dose: 32.0 mg/kg/injection, schedule: Q03HX008 (ip), vehicle: saline) is 136 % of control. For the same compound, the T/C (T/C endpoint: mean survival time, dose: 32.0 mg/kg/injection, schedule: Q03HX008 (oral), vehicle: saline) is 127 % of control; the T/C (T/C endpoint: mean survival time, dose: 46.4 mg/kg/injection, schedule: Q01DX009 (oral), vehicle: water) is 138 % of control; the T/C (T/C endpoint: mean survival time, dose: 64.0 mg/kg/injection, schedule: Q01DX009 (oral), vehicle: saline) was 131 % of control [9 of 10 alive]; the T/C (T/C endpoint: mean survival time, dose: 64.0 mg/kg/injection, schedule: Q03HX008 (ip), vehicle: saline) was 148 % of control; the T/C (T/C endpoint: mean survival time, dose: 64.0 mg/kg/injection, schedule: Q03HX008 (oral), vehicle: saline) is 147 % of control; the T/C (T/C endpoint: mean survival time, dose: 256.0 mg/kg/injection, schedule: Q04DX003 (oral), vehicle: saline) was 135 % of control. For the same compound, the T/C is 141 % of control (T/C endpoint: mean survival time, dose: 512.0 mg/kg/injection, schedule: Q01DX001 (ip), vehicle: saline); 131 % of control (T/C endpoint: mean survival time, dose: 512.0 mg/kg/injection, schedule: Q01DX001 (oral), vehicle: saline); 147 % of control (T/C endpoint: mean survival time, dose: 1024.0 mg/kg/injection, schedule: Q01DX001 (oral), vehicle: saline).
In the case of `N#CC1(C#N)OC1(C#N)c1ccccc1` (centres undefined), the survivor count is recorded as 6 of 6 (T/C endpoint: mean survival time, dose: 6.0 mg/kg/injection, schedule: Q01DX009 (ip), vehicle: saline with Tween-80); 6 of 6 (T/C endpoint: mean survival time, dose: 12.5 mg/kg/injection, schedule: Q01DX001 (ip), vehicle: saline with Tween-80); 0 of 6 (T/C endpoint: mean survival time, dose: 25.0 mg/kg/injection, schedule: Q01DX001 (ip), vehicle: saline with Tween-80); 0 of 6 (T/C endpoint: mean survival time, dose: 50.0 mg/kg/injection, schedule: Q01DX001 (ip), vehicle: saline with Tween-80); 0 of 6 (T/C endpoint: mean survival time, dose: 100.0 mg/kg/injection, schedule: Q01DX001 (ip), vehicle: saline with Tween-80); 0 of 6 (T/C endpoint: mean survival time, dose: 200.0 mg/kg/injection, schedule: Q01DX001 (ip), vehicle: saline with Tween-80).
Consider `Nc1nc(OCc2ccccc2)ncc1C(=O)NC(CO)C(=O)O` (centres undefined), for which the survivor count is 2 of 6 (T/C endpoint: mean survival time, dose: 100.0 mg/kg/injection, schedule: Q01DX009 (ip), vehicle: saline with Tween-80); 1 of 6 under setting [1]; 0 of 6 (T/C endpoint: mean survival time, dose: 400.0 mg/kg/injection, schedule: Q01DX009 (ip), vehicle: saline with Tween-80).
In the case of `CON(C)C(=O)N1c2ccccc2Sc2ccccc21`, under setting [2], the survivor count is 6 of 6.
Take `CC(=O)CC(=O)C(F)(F)F.CC(=O)CC(=O)C(F)(F)F.[O]=[V]`: the survivor count (T/C endpoint: mean survival time, dose: 30.0 mg/kg/injection, schedule: Q01DX009 (ip), vehicle: saline with Tween-80) is 5 of 6.
For `NC(N)=NC(N)=Nc1ccc(Cl)c(Cl)c1`, the survivor count by setting is: (T/C endpoint: mean survival time, dose: 225.0 mg/kg/injection, schedule: Q01DX009 (ip), vehicle: saline) 3 of 6; (T/C endpoint: mean survival time, dose: 335.0 mg/kg/injection, schedule: Q01DX009 (ip), vehicle: saline) 0 of 6.
In the case of `O=C(Nc1ccc(NC2=NCCN2)cc1)c1ccc(C(=O)Nc2ccc(NC3=NCCN3)cc2)cc1`, where the note is “T/C endpoint: mean survival time, dose: 6.0 mg/kg/injection, schedule: Q01DX008 (iv), vehicle: water”, the T/C is 130 % of control. Besides, under “T/C endpoint: mean survival time, dose: 9.0 mg/kg/injection, schedule: Q01DX008 (iv), vehicle: water”, the survivor count is 0 of 7.
Turning to `CCCCCCCCCCCC(=O)OCCN(C=O)C[n+]1ccccc1`, the survivor count is given as 1 of 3 (T/C endpoint: mean survival time, dose: 200.0 mg/kg/injection, schedule: Q04DX002 (ip), vehicle: saline) and 0 of 3 (T/C endpoint: mean survival time, dose: 400.0 mg/kg/injection, schedule: Q04DX002 (ip), vehicle: saline).
For `O=[N+]([O-])c1ccc(C[n+]2ccccc2)cc1`, the survivor count is on record as 0 of 6 under setting [3], 2 of 6 under setting [4] and 0 of 6 under setting [5].
As for `O=Cc1[nH]c(=S)[nH]c(=O)c1CCCc1ccccc1`, the survivor count (T/C endpoint: mean survival time, dose: 100.0 mg/kg/injection, schedule: Q04DX002 (ip), vehicle: Klucel (hydroxypropylcellulose) (HPC)) is reported as 0 of 3.
For the compound `c1ccc2c(c1)-c1ccccc1C1NC21` (centres undefined), the survivor count is given as 5 of 6 (T/C endpoint: median survival time, dose: 50.0 mg/kg/injection, schedule: Q01DX009 (ip), vehicle: saline with Tween-80) and 0 of 6 (T/C endpoint: median survival time, dose: 100.0 mg/kg/injection, schedule: Q01DX009 (ip), vehicle: saline with Tween-80).
Turning to `CCOC(=O)C1C2OC(=O)C(C(=O)C2CN(CCCl)CCCl)C1C1CC=C(CC2=CCC(C3C4C(=O)OC(C(CN(CCCl)CCCl)C4=O)C3C(=O)OCC)CC2)CC1` (centres undefined), the T/C (T/C endpoint: mean survival time, dose: 12.5 mg/kg/injection, schedule: Q01DX009 (ip), vehicle: Klucel (hydroxypropylcellulose) (HPC)) is 125 % of control; the T/C (T/C endpoint: mean survival time, dose: 25.0 mg/kg/injection, schedule: Q01DX009 (ip), vehicle: Klucel (hydroxypropylcellulose) (HPC), evaluated on day 30) is 137 % of control; the T/C (T/C endpoint: mean survival time, dose: 25.0 mg/kg/injection, schedule: Q01DX009 (ip), vehicle: Klucel (hydroxypropylcellulose) (HPC), evaluated on day 60) was 135 % of control.

The values are drawn from PubChem BioAssay AID256 (DTP/NCI, 2004).
